Laboratory results reported in patent publication US20250057791A1, “PROTECTION AGAINST ARTHROPOD PARASITES WITH PURINERGIC RECEPTOR (OPR) ANTAGONISTS” (priority 2021, published 2025).
At least one compound was matched to its structure with a doubt left. Some entries share one result that the patent states for a list of compounds. Some ranges recur; such a range may be that of the whole group of compounds.

Key:
malaria mosquito P1 PR = assay: Electrophysiological response to 200 pM adenosine with PR antagonist admixed; assay type: cell-based, Anopheles gambiae; settings: suramin at 1 nM
Description: (§1) The tip recording method was used to record action potentials (spikes) from sensory cells in sensilla on A. gambiae labellum lobes.
(§2) Sensilla were exposed to test compounds and PR antagonists for ca. 2-4 s and spikes were counted in the first 2 s of recordings. Up to 4 test compounds were tested on a sensillum to evaluate potential agonists, each presented at 200 pM. To study responses as a function of dose for agonists ATP, adenosine, AMP, AMP-CPP and ATP+adenosine, up to 7 recordings were made at increasing doses of agonist from the same sensillum. […]
Pairwise comparisons of A. gambiae electrophysiological (EP) responses to ATP and adenosine alone and combined with a given dose of PR antagonist, EP responses to ATP alone and combined with a given dose of a metal modulator, and EP responses to ATP prior to and after exposure of a sensillum to a given dose of a PR antagonist were made with a one-tailed Wilcoxon signed-rank test for data showing a non-normal distribution, with a paired Student's t-test for normally distributed data showing homogeneous variance and with a Welch's t-test for normally distributed data showing non-homogeneous variance. […] Percent feeding inhibition induced by PR antagonists in A. stephensi was calculated using Abbott's formula.

[1] = system: A. gambiae labellum sensilla (purine-sensitive cell); assay: Tip recording of action potentials from A. gambiae labellum sensilla in response to agonists; assay type: cell-based, Anopheles gambiae; settings: 200 pM
Description: as §1, §2
Spike counts elicited by 200 pM doses of nucleotides, nucleosides, purines, pyrimidines and water were log(x+1.25)-transformed (optimal constant numerically established using a maximum likelihood procedure) and analysed using a linear mixed effects model (function ‘lme’ in “nlme” R package) with mosquito number as random effect. […] Spike counts elicited by ATP, AMP, adenosine and their binary mixtures were analysed using a generalised linear model (LM) of log (x+10) transformed data and differences were identified using post-hoc-Tukey test with Holm's FWEC. […]
Dose-response models fitted to mosquito data were generated using the ‘drm’ command in the “drc” R package (version 2.5-12). Best fitting models (goodness of fit) and effects of dose of a compound were assessed using, respectively, ‘modelFit’ and ‘noEffect’ functions in the same R package. […]

Row | SMILES | effect on EP response to adenosine, in words (malaria mosquito P1 PR) | EP response, spike frequency [1]
1 | Cc1ccc(C(=O)Nc2ccc(S(=O)(=O)O)c3cc(S(=O)(=O)O)cc(S(=O)(=O)O)c23)cc1NC(=O)c1cccc(NC(=O)Nc2cccc(C(=O)Nc3cc(C(=O)Nc4ccc(S(=O)(=O)O)c5cc(S(=O)(=O)O)cc(S(=O)(=O)O)c45)ccc3C)c2)c1 [Suramin] | not | 
2 | Nc1ncnc2c1ncn2C1OC(COP(=O)(O)CP(=O)(O)OP(=O)(O)O)C(O)C1O (stereo not drawn) [AMP-CPP, α,β-Methyleneadenosine-5′-triphosphate] |  | 23 to 26 spikes/2s
